26 molecules from the supplement of paper PMC3047530 can be followed below.

Some of the results follow. Single values are uncertain, as repeats are few or missing.

This assay has as its system Geomyces destructans. In words: growth inhibition relative to DMSO control; higher = stronger growth inhibition. To be noted: 10 µM; 15 °C; incubation time 10 days.
Turning to `OCc1ccccc1O[C@@H]1O[C@H](CO)[C@@H](O)[C@H](O)[C@H]1O`, the growth inhibition was -12.3%.

For `C=CC1=C(C(=O)O)N2C(=O)[C@@H](NC(=O)/C(=N\O)c3csc(N)n3)[C@H]2SC1`, the growth inhibition is -26.4%.

On to `Nc1cc(N2CCCCC2)nc(N)[n+]1[O-]`, for which the growth inhibition was -10%.

Regarding `CC(=O)OC1CC[C@@]2(C)C(CC[C@]3(C)C2CCC2C4CC(C)(C)CCC4(C(=O)O)CC[C@]23C)C1(C)C` (stereo partly specified), the growth inhibition amounted to 5.11%.

For `CC1=C(/C=C/C(C)=C/C=C/C(C)=C/CO)C(C)(C)CCC1`, the growth inhibition was -6.7%.

Regarding `O=C(O)c1ccccc1OP(=O)(O)O`, the growth inhibition was -3.94%.

Consider `COC(=O)c1c(C)cc(OC(=O)c2c(C)cc(O)c(C=O)c2O)c(C)c1O`, for which the growth inhibition is -4.31%.

`C/C=C(/C(=C/C)c1ccc(O)cc1)c1ccc(O)cc1`: the growth inhibition is -5.77%.

`COc1ccc([C@@H](C)C(=O)c2ccc(O)cc2O)cc1`: the growth inhibition was -7.91%.

`CC1(C)OC(=O)C=CC2(C)C1CC(O)C1(C)C2CCC2(C)C(c3ccoc3)OC(=O)C3OC321` (stereo unspecified): the growth inhibition was -18%.

With `NC(Cc1cc(I)c(Oc2ccc(O)c(I)c2)c(I)c1)C(=O)O` (stereo unspecified), the growth inhibition was -10.5%.

As for `O=c1n(CCCN2CCN(c3cccc(Cl)c3)CC2)nc2ccccn12`, the growth inhibition is -6.77%.

Turning to `CC(=O)NCCCCCC(=O)O`, the growth inhibition is -4.73%.

Take `CC1/C(=N/O)C[C@@H]2C[C@H]1C2(C)C` (stereo partly specified): the growth inhibition is -5.08%.

Regarding `CC1(C)S[C@@H]2[C@H](NC(=O)[C@H](N)c3ccccc3)C(=O)N2[C@H]1C(=O)O`, the growth inhibition is -36.8%.

As for `C=C[C@H]1CN2CC[C@H]1C[C@H]2[C@H](O)c1ccnc2ccc(OC)cc12`, the growth inhibition was -21.5%.

For `O=C(/C=C/c1ccccc1)c1ccc(O[C@@H]2O[C@H](CO)[C@@H](O)[C@H](O)[C@H]2O)cc1O`, the growth inhibition stood at 1.36%.

For the molecule `CCCn1c(=O)c2[nH]c(C3CCCC3)nc2n(CCC)c1=O`, the growth inhibition came out at 8.2%.

As for `Cc1nc2ccccn2c(=O)c1CCN1CCC(C(=O)c2ccc(F)cc2)CC1`, the growth inhibition is -33.5%.

Regarding `O=c1c(-c2ccccc2)coc2cc(O)cc(O)c12`, the growth inhibition is 8.73%.

`NC(=O)c1cnccn1`: the growth inhibition is -28.8%.

As to `CC(=O)O[C@H]1C(=O)[C@@]2(C)[C@H]([C@H](OC(=O)c3ccccc3)[C@]3(O)C[C@H](OC(=O)[C@H](O)[C@@H](NC(=O)c4ccccc4)c4ccccc4)C(C)=C1C3(C)C)[C@]1(OC(C)=O)CO[C@@H]1C[C@@H]2O`, the growth inhibition is -8.86%.

Regarding `COc1ccc2c(c1)CC[C@@H]1[C@@H]2CC[C@]2(C)[C@@H](O)CC[C@@H]12`, the growth inhibition is -14.8%.

Regarding `COc1cc2c(cc1OC)[C@@H]1C(=O)c3c(O)cc4c(c3O[C@@H]1CO2)C=CC(C)(C)O4` [alpha-TOXICAROL], the growth inhibition worked out at 5.82%.

Regarding `O[C@H]1[C@H](O)[C@@H](O)[C@H](O)[C@@H](O)[C@H]1O`, the growth inhibition is -24.5%.

Consider `CCN1CCN(C(=O)NC(C(=O)NC2C(=O)N3C(C(=O)O)=C(CSc4nnnn4C)CSC23)c2ccc(O)cc2)C(=O)C1=O` (stereo unspecified), for which the growth inhibition was -3.94%.
